From publication doi:10.1101/2023.02.11.528093
These are yes or no findings as the source states them, for the method shown. Binding seen in cells or lysates may run through a third protein. Some binding calls cover weakened binding; strength is not graded here.

Sequences of proteins named here, by UniProt entry; tags and fusion partners are left off.
UniProt P22366: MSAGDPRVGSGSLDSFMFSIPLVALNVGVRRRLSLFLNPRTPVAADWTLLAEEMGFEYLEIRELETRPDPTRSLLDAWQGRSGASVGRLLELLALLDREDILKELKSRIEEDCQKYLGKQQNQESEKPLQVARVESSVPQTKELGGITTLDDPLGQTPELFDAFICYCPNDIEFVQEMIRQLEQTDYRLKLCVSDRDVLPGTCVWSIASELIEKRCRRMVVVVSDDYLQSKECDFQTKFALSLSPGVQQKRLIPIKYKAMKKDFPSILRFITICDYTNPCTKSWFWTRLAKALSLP

T1: IL-33 receptor (ST2, suppression of tumorigenicity 2) (mouse (endogenous in mTh2 cells)) (UniProt P14719)
T1 sequence: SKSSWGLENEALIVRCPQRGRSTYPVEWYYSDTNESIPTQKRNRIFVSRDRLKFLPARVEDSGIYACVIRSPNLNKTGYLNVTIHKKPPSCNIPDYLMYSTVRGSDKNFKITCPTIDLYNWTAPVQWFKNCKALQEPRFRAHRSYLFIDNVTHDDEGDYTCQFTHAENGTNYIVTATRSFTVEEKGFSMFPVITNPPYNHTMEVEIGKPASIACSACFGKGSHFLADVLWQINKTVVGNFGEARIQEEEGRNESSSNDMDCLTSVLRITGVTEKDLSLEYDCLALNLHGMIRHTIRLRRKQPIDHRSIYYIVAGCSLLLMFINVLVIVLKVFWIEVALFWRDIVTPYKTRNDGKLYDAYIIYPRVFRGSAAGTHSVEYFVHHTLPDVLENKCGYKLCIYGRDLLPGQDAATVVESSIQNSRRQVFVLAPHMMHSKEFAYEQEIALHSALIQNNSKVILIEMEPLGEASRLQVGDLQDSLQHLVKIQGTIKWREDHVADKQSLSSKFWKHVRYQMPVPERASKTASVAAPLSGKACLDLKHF


Biological target: T1, IL-33 receptor (ST2, suppression of tumorigenicity 2) (mouse (endogenous in mTh2 cells))
Test: co-IP

Row | binding | Molecule
1 | binds | myeloid differentiation primary response protein 8 (MYD88) (from UniProt P22366 1-296)
2 | binds | Tumor necrosis factor receptor (TNF)-associated factor 4 (TRAF4) (protein, UniProt Q61382 1-470) MPGFDYKFLEKPKRRLLCPLCGKPMREPVQVSTCGHRFCDTCLQEFLSEGVFKCPEDQLPLDYAKIYPDPELEVQVLGLAIRCIHSEEGCRWSGPLRHLQGHLNTCSFNVVPCPNRCPAKLSRRDLPAHLQHDCPKRRLKCEFCGCDFSGEAYESHEGVCPQESVYCENKCGARMMRRLLAQHATSECPKRTQPCAYCTKEFVYDTIQSHQYQCPRLPVPCPNQCGVGTVAREDLPTHLKDSCSTAFVLCPFKESGCKHRCPKLAMGRHVEESVKPHLAMMCALVSRQRQELQELRRELEELSIGSDGVLIWKIGSYGRRLQEAKAKPNLECFSPAFYTHKYGYKLQVSAFLNGNGSGEGTHLSIYIRVLPGAFDNLLEWPFARRVTFSLLDQSDPGLAKPQHVTETFHPDPNWKNFQKPGTWRGSLDESSLGFGYPKFISHQDIRKRNYVRDDAVFIRASVELPRKILS
